Our source for the binding values is publication PMC4313521.

Chains of the proteins cited; added tags and fusions are not shown. Residues count along the entry.
UniProt Q99683: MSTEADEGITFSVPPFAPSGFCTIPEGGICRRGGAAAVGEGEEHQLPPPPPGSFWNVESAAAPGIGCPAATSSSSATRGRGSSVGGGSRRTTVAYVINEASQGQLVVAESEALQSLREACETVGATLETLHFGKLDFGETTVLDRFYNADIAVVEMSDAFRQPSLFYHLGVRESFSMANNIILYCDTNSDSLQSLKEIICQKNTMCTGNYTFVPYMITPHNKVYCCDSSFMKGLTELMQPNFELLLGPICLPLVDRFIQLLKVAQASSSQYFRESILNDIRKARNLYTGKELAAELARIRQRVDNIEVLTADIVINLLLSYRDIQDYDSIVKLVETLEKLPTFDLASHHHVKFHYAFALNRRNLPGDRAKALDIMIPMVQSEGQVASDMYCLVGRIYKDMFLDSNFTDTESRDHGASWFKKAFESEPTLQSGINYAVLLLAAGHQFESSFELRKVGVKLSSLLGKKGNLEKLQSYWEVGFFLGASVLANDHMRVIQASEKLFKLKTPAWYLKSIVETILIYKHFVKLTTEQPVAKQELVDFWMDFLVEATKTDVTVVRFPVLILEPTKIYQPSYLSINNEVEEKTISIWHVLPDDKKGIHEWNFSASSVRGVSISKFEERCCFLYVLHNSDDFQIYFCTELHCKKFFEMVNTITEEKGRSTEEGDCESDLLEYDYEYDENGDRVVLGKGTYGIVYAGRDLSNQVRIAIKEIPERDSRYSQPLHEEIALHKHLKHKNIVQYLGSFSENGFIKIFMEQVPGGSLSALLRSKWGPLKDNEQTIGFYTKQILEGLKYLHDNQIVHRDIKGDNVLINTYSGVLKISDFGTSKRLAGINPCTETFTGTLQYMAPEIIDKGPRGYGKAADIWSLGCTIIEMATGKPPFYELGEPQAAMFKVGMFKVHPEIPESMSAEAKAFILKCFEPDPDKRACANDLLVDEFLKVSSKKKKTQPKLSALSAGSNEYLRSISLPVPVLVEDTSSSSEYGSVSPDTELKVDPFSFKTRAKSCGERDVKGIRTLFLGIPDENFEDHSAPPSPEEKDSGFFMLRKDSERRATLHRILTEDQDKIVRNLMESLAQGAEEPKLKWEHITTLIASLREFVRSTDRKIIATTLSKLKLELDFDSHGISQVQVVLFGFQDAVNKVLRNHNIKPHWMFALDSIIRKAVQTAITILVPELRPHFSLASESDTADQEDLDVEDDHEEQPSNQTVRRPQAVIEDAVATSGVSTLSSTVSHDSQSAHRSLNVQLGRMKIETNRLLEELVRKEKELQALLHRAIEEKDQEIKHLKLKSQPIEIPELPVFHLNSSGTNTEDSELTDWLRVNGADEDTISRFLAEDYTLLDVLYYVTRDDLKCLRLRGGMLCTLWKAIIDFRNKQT
UniProt O75460, residues 19-977: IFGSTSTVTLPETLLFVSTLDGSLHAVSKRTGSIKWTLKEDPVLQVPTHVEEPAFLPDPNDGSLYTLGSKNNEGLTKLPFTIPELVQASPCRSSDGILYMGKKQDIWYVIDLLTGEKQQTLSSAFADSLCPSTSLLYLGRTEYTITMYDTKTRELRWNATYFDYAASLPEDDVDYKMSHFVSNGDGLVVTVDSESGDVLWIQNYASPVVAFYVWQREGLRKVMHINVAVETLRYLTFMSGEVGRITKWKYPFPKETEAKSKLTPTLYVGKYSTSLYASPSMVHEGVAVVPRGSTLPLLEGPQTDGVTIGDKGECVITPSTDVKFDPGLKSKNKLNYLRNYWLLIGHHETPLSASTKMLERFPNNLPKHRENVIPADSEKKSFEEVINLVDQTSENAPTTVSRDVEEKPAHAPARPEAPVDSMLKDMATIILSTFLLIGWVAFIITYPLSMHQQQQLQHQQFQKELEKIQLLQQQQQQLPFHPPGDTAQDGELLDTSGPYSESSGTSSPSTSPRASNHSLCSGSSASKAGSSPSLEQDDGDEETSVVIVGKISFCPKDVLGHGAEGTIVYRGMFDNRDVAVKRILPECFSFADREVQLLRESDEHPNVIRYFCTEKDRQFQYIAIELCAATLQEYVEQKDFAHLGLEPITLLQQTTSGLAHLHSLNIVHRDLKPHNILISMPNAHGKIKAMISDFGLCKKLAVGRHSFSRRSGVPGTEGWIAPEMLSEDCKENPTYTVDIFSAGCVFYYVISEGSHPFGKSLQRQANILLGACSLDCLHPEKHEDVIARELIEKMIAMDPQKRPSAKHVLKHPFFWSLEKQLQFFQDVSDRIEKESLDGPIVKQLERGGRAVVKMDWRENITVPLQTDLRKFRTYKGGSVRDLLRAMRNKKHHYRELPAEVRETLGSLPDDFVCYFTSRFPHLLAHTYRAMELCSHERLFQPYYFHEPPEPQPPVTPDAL

Results are given in words; binding and its absence hold for the method and conditions named. Binding seen in cells or lysates may run through a third protein. Some results given as binding are weak or reduced against the parent protein; the word gives no strength.

In this assay the target is apoptosis signal-regulating kinase 1 (ASK1) (human (endogenous in H1299)) (UniProt Q99683). The assay is described as follows: co-IP; H1299 cells treated without or with 5 uM PPE8 for 2 h; 500 ug lysate (50 mM Tris pH 7.2, 150 mM NaCl, 1 mM EDTA, 1% triton X-100) incubated with 2 ug ASK1 antibody and affinity ligand overnight at 4 C (catch and release system); eluate blotted with IRE1 antibody.

For the substance “inositol-regulating enzyme 1 (IRE1) (from UniProt O75460 19-977)”, the binding result is “binds”.
